Assay results: PMC4053355
No constants are given. Whether binding was seen depends on the method and setting. Binding seen in cells or lysates may run through a third protein. Some binding calls cover weakened binding; strength is not graded here.

By UniProt entry, the sequences of proteins in these tests, tags left out.
UniProt Q15643: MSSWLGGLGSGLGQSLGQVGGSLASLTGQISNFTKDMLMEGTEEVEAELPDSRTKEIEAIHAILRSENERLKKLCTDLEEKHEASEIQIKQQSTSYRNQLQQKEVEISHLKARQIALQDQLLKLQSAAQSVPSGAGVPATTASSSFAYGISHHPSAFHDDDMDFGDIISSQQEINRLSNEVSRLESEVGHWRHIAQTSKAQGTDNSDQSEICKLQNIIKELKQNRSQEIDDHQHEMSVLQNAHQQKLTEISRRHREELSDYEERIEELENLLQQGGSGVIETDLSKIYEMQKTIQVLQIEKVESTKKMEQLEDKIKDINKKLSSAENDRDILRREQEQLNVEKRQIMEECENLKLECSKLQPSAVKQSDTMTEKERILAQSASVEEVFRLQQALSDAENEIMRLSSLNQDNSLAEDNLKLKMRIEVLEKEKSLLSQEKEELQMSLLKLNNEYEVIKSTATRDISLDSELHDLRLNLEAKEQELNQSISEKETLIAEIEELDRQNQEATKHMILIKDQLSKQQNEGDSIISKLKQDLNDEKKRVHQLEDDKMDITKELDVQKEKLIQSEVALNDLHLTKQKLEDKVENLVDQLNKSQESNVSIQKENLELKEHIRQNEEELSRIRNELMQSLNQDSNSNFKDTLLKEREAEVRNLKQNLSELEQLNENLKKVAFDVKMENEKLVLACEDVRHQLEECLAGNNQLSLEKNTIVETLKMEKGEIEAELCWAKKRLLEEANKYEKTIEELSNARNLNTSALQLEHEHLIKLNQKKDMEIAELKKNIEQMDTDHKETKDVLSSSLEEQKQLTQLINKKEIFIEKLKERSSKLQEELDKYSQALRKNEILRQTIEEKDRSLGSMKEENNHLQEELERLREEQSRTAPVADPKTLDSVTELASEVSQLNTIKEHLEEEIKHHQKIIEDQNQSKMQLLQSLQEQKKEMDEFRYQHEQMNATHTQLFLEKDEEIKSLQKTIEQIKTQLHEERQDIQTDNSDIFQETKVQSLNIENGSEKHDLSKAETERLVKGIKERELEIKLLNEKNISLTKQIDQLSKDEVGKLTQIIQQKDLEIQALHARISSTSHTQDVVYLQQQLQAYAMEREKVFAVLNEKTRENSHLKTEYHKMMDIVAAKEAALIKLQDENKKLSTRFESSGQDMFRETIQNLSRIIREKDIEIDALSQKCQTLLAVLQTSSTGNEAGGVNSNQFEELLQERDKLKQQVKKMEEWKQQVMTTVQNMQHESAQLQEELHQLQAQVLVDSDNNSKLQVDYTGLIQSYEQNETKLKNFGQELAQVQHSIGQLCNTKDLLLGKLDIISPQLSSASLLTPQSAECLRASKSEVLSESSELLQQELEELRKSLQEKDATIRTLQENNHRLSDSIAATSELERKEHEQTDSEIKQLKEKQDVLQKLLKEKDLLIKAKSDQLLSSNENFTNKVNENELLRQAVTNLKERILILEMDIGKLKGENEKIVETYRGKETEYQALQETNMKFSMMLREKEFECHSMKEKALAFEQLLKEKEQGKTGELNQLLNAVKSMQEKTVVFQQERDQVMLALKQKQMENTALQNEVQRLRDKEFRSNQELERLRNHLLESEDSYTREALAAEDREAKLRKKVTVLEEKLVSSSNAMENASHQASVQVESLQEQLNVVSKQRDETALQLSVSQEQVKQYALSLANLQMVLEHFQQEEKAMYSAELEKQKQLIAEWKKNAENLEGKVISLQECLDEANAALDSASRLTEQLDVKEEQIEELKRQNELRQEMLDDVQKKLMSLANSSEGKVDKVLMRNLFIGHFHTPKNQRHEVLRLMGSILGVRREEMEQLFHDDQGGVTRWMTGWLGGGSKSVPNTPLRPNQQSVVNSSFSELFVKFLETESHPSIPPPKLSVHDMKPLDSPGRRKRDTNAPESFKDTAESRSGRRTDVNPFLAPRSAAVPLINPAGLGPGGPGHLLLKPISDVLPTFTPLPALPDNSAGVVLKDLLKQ

Molecular target: thyroid hormone receptor/retinoblastoma-interacting protein-230 (TRIP230) (human (endogenous in MCF7)) (UniProt Q15643)
Test: co-IP; about 1 mg nuclear extract of MCF7 cells kept in 1% O2 for 6 h, 5 µg anti-TRIP230 mouse IgG or control mouse IgG, 4°C 90 min, Protein-G sepharose; immuno-blot for TRIP230, ARNT and Rb

binding: binds
B1: retinoblastoma protein (Rb) (protein, UniProt P06400 1-928)
chain: MPPKTPRKTAATAAAAAAEPPAPPPPPPPEEDPEQDSGPEDLPLVRLEFEETEEPDFTALCQKLKIPDHVRERAWLTWEKVSSVDGVLGGYIQKKKELWGICIFIAAVDLDEMSFTFTELQKNIEISVHKFFNLLKEIDTSTKVDNAMSRLLKKYDVLFALFSKLERTCELIYLTQPSSSISTEINSALVLKVSWITFLLAKGEVLQMEDDLVISFQLMLCVLDYFIKLSPPMLLKEPYKTAVIPINGSPRTPRRGQNRSARIAKQLENDTRIIEVLCKEHECNIDEVKNVYFKNFIPFMNSLGLVTSNGLPEVENLSKRYEEIYLKNKDLDARLFLDHDKTLQTDSIDSFETQRTPRKSNLDEEVNVIPPHTPVRTVMNTIQQLMMILNSASDQPSENLISYFNNCTVNPKESILKRVKDIGYIFKEKFAKAVGQGCVEIGSQRYKLGVRLYYRVMESMLKSEEERLSIQNFSKLLNDNIFHMSLLACALEVVMATYSRSTSQNLDSGTDLSFPWILNVLNLKAFDFYKVIESFIKAEGNLTREMIKHLERCEHRIMESLAWLSDSPLFDLIKQSKDREGPTDHLESACPLNLPLQNNHTAADMYLSPVRSPKKKGSTTRVNSTANAETQATSAFQTQKPLKSTSLSLFYKKVYRLAYLRLNTLCERLLSEHPELEHIIWTLFQHTLQNEYELMRDRHLDQIMMCSMYGICKVKNIDLKFKIIVTAYKDLPHAVQETFKRVLIKEEEYDSIIVFYNSVFMQRLKTNILQYASTRPPTLSPIPHIPRSPYKFPSSPLRIPGGNIYISPLKSPYKISEGLPTPTKMTPRSRILVSIGESFGTSEKFQKINQMVCNSDRVLKRSAEGSNPPKPLKKLRFDIEGSDEADGSKHLPGESKFQQKLAEMTSTRTRMQKQKMNDSMDTSNKEEK
